# According to US20150165065A1 (AVIDBIOTICS, published 2015):
# Chains of the proteins cited; added tags and fusions are not shown. Lines headed by an entry give the natural chain unless they say otherwise; changes in a name come on top. Residues count along the entry.
# UniProt P06756: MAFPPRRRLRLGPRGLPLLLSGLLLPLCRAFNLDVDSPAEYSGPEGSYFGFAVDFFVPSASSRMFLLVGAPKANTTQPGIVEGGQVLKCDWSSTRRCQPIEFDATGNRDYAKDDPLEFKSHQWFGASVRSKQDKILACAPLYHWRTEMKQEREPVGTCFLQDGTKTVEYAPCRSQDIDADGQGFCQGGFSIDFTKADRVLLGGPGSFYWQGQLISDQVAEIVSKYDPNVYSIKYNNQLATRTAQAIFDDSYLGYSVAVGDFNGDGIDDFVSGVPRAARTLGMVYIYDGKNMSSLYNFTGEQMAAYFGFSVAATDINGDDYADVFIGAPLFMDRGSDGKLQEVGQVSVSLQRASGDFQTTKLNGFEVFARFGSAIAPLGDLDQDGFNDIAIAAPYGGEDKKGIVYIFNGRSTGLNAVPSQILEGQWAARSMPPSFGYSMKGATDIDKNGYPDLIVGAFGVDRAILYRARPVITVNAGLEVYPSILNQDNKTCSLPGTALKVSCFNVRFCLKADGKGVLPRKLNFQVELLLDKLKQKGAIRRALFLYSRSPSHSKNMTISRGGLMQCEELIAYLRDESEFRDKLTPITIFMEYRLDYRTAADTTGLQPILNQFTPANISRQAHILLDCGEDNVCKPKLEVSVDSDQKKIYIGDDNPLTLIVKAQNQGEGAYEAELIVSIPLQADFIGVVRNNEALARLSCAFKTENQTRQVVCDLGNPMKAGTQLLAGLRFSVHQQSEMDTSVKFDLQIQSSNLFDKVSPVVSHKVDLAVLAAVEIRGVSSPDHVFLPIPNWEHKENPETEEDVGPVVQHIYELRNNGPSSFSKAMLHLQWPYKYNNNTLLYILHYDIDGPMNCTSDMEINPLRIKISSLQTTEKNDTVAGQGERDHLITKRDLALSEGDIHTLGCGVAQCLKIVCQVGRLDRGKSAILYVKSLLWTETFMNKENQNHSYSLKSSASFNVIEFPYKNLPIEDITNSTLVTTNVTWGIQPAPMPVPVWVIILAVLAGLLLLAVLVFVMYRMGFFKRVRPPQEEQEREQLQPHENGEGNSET
# UniProt P22607, residues 23-375: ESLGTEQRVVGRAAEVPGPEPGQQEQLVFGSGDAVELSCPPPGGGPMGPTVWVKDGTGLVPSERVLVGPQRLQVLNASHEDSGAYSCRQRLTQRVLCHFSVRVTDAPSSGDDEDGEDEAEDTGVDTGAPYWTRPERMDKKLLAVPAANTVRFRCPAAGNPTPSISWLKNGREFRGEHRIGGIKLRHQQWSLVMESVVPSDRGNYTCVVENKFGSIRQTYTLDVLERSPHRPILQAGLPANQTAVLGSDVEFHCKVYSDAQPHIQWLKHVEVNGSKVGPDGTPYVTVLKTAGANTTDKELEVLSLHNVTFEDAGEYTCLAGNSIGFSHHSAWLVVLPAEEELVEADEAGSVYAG
# UniProt P26718: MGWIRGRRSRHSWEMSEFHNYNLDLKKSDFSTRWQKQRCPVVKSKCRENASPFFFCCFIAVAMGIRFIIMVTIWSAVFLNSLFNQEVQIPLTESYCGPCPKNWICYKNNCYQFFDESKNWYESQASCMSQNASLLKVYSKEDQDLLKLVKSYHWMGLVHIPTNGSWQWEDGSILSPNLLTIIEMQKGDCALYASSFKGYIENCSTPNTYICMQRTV
# Results are given in words; binding and its absence hold for the method and conditions named. Some results given as binding are weak or reduced against the parent protein; the word gives no strength.
# Columns and labels:
# [1] = biological target: T1, integrin αVβ3 (UniProt P06756 31-992; P05106 27-718); assay: phage ELISA, coated integrin, anti-M13-HRP
# T1 construct: Coated on the ELISA plate
# [2] = biological target: T2, integrin αVβ5 (UniProt P06756 31-992; P18084 24-719); assay: phage ELISA, coated integrin, anti-M13-HRP
# T2 construct: Coated on the ELISA plate
# [3] = biological target: FGFR3 (coated on wells) (UniProt P22607); assay: ELISA, coated FGFR3, detected with NKG2D-Fc
# [4] = biological target: NKG2D-Fc (detection reagent of the FGFR3 ELISA) (Homo sapiens (Human)) (UniProt P26718); assay: ELISA, coated FGFR3, detected with NKG2D-Fc
# [5] = biological target: FGFR3 (coated on wells) (UniProt P22607); assay: ELISA, coated FGFR3 (2 ug/ml), NKG2D-Fc and anti-Fc-HRP
# [6] = biological target: NKG2D-Fc (detection reagent of the FGFR3 ELISA) (Homo sapiens (Human)) (UniProt P26718); assay: as above
# [7] = biological target: FGFR3 (coated on wells) (UniProt P22607); assay: ELISA on FGFR3-coated wells (2 ug/ml), bound sMICA detected with NKG2D-Fc and anti-Fc-HRP
Binder,binding [1],binding [2],other results
"M13 phage pKK107 displaying MICA α3 domain with tight loop 1 insert T-3.1 (designed binder, also called 1-T-3.1; not shown: C-terminal portion of M13 gene III protein, fused at codon position 198) TVPPMVNTSRGDHPRTQCRASGFYPWNITLSWRQDGVSLSHDTQQWGDVLPDGNGTYQTWVATRICQGEEQRFTCYMEHSGNHSTHPVPSGK",binds,binds,
"M13 phage pKK110 displaying MICA α3 domain with tight loop 1 insert T-5.1 (designed binder, also called 1-T-5.1; not shown: C-terminal portion of M13 gene III protein, fused at codon position 198) TVPPMVNVTRGDTFTQSCRASGFYPWNITLSWRQDGVSLSHDTQQWGDVLPDGNGTYQTWVATRICQGEEQRFTCYMEHSGNHSTHPVPSGK",binds,binds,
"M13 phage pKK111 displaying MICA α3 domain with tight loop 1 insert T-5.3 (designed binder, also called 1-T-5.3; not shown: C-terminal portion of M13 gene III protein, fused at codon position 198) TVPPMVNHLARGDDLTYCRASGFYPWNITLSWRQDGVSLSHDTQQWGDVLPDGNGTYQTWVATRICQGEEQRFTCYMEHSGNHSTHPVPSGK",binds,binds,
MICA-α3-iFv.1 (designed binder) EPHSLRYNLTVLSWDGSVQSGFLTEVHLDGQPFLRCDRQKCRAKPQGQWAEDVLGNKTWDRETRDLTGNGKDLRMTLAHIKDQKEGLHSLQEIRVCEIHEDNSTRSSQHFYYDGELFLSQNLETKEWTMPQSSRAQTLAMNVRNFLKEDAMKTKTHYHAMHADCLQELRRYLKSGVVLRRTVPPMVQVTRSEASGDRVTITCRASQDVSTAVAWYQQKPGKAPKLLIYSASFLYSGVPSRFSGSGSGTDFTLTISSLQPEDFATYYCQQSYTTPPTFGQGTKVEIKGGSSRSSSSGGGGSGGGGEVQLVESGGGLVQPGGSLRLSCAASGFTFTSTGISWVRQAPGKGLEWVGRIYPTNGSTNYADSVKGRFTISADTSKNTAYLQMNSLRAEDTAVYYCARTYGIYDLYVDYTEYVMDYWGQGTLVTVSSGGSSRSSSSGGGGSGGGGDIQMTQSPSSLSASGQITVTCRASGFYPWNITLSWRQDGVSLSHDTQQWGDVLPDGQGTYQTWVATRISQGEEQRFTCYMEHSGQHSTHPVPSGKGSHHHHHH,,,binding [3]: binds; binding [4]: binds; binding [5]: binds; binding [6]: binds; binding [7]: binds
"M13 phage pKK96 displaying MICA α3 domain with loop 1 insert 5.1 (designed binder, also called 1-5.1; not shown: C-terminal portion of M13 gene III protein, fused at codon position 198) TVPPMVNVTVTRGDTFTQSVTCRASGFYPWNITLSWRQDGVSLSHDTQQWGDVLPDGNGTYQTWVATRICQGEEQRFTCYMEHSGNHSTHPVPSGK",binds,binds,
"M13 phage pKK101 displaying MICA α3 domain with loop 1 insert 3.3sp (designed binder, also called 1-3.3sp; not shown: C-terminal portion of M13 gene III protein, fused at codon position 198) TVPPMVNVTSGGSGGGSRVPRGDSDLTSGGSGGGVTCRASGFYPWNITLSWRQDGVSLSHDTQQWGDVLPDGNGTYQTWVATRICQGEEQRFTCYMEHSGNHSTHPVPSGK",binds,binds,
"M13 phage pKK103 displaying MICA α3 domain with loop 1 insert 5.3sp (designed binder, also called 1-5.3sp; not shown: C-terminal portion of M13 gene III protein, fused at codon position 198) TVPPMVNVTSGGSGGGSHLARGDDLTYSGGSGGGVTCRASGFYPWNITLSWRQDGVSLSHDTQQWGDVLPDGNGTYQTWVATRICQGEEQRFTCYMEHSGNHSTHPVPSGK",binds,binds,
"M13 phage pKK102 displaying MICA α3 domain with loop 1 insert 5.1sp (designed binder, also called 1-5.1sp; not shown: C-terminal portion of M13 gene III protein, fused at codon position 198) TVPPMVNVTSGGSGGGSVTRGDTFTQSSGGSGGGVTCRASGFYPWNITLSWRQDGVSLSHDTQQWGDVLPDGNGTYQTWVATRICQGEEQRFTCYMEHSGNHSTHPVPSGK",binds,binds,
"M13 phage pKK97 displaying MICA α3 domain with loop 1 insert 5.2 (designed binder, also called 1-5.2; not shown: C-terminal portion of M13 gene III protein, fused at codon position 198) TVPPMVNVTRGDTFTQSVTCRASGFYPWNITLSWRQDGVSLSHDTQQWGDVLPDGNGTYQTWVATRICQGEEQRFTCYMEHSGNHSTHPVPSGK",binds,binds,
"M13 phage pKK104 displaying MICA α3 domain with loop 3 insert 3.2sp (designed binder, also called 3-3.2sp; not shown: C-terminal portion of M13 gene III protein, fused at codon position 198) TVPPMVNVTRSEASEGNITVTCRASGFYPWNITLSWRQDGVSLSHDTQQWGDVLPDGNGTYQTWVATRISGGSGGGSTSRGDHPRTQSGGSGGGCYMEHSGNHSTHPVPSGK",binds,binds,
"M13 phage pKK105 displaying MICA α3 domain with loop 3 insert 3.3sp (designed binder, also called 3-3.3sp; not shown: C-terminal portion of M13 gene III protein, fused at codon position 198) TVPPMVNVTRSEASEGNITVTCRASGFYPWNITLSWRQDGVSLSHDTQQWGDVLPDGNGTYQTWVATRISGGSGGGSRVPRGDSDLTSGGSGGGCYMEHSGNHSTHPVPSGK",binds,binds,
